According to publication doi:10.1101/2020.04.10.035014 (bioRxiv, 2020):
No constants are given. Whether binding was seen depends on the method and setting. For some of these results: Binding seen in cells or lysates may run through a third protein. Some entries that bind do so weakly or less than the wild type.

Amino acid sequences for entries named in this document (tags omitted). A change or cut given only in a name is not applied to a line headed by its entry. Residues count along the entry.
UniProt Q68E01, whole entry: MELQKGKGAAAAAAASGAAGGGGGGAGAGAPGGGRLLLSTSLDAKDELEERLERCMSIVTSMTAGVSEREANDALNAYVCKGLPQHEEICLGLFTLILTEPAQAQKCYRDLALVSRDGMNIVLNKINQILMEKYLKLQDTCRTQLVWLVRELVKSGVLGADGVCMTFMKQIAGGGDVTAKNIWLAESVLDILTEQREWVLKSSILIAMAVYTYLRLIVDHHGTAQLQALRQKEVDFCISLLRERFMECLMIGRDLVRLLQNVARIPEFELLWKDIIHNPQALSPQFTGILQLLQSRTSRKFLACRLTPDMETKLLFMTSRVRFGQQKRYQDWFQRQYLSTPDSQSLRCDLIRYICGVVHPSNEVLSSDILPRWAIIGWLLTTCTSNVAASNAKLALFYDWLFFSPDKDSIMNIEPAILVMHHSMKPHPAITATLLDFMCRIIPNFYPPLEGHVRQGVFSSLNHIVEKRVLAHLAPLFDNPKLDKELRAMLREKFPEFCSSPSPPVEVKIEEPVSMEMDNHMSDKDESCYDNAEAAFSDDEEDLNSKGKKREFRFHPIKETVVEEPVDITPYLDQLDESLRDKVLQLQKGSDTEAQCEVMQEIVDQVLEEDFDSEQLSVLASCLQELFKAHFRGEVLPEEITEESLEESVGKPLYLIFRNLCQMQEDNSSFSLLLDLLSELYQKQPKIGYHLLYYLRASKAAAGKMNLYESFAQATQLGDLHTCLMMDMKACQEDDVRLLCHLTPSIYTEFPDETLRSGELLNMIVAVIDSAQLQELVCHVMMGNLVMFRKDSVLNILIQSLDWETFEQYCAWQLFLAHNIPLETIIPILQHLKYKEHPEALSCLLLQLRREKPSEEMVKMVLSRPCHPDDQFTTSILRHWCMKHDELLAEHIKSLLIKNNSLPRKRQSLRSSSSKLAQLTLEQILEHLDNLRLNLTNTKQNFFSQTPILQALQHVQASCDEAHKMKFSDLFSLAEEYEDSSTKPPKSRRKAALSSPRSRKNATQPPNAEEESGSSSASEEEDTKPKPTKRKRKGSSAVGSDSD
UniProt Q68E01, 1-500: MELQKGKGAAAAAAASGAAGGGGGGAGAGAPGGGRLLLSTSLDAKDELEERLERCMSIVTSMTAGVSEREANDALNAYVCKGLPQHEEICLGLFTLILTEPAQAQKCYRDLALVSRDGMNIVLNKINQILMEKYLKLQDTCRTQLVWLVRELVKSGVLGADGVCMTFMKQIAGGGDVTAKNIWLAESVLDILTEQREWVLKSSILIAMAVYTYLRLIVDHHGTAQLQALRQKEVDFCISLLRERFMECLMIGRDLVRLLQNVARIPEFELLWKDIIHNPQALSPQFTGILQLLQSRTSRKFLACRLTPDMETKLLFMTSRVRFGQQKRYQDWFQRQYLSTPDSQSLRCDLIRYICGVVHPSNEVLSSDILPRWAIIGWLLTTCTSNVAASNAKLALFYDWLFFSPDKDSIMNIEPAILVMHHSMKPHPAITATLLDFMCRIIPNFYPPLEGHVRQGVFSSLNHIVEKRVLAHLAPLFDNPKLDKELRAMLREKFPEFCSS

Key:
INTS3(1-500) (human) = INTS3(1-500) (human) (UniProt Q68E01); experiment: SEC
[1] = molecular target: C-terminus of INTS3 (INTS3c; residues 560-905 and 915-995, co-expressed) (human) (UniProt Q68E01); experiment: pull-down
[2] = molecular target: SFB-tagged wild-type full length INTS3 (human) (UniProt Q68E01); experiment: co-IP
[3] = molecular target: full length INTS6 F858A/K859A mutant (human) (UniProt Q9UL03); experiment: co-IP
[4] = molecular target: full length wild-type INTS6 of the co-immunoprecipitation of Fig. 2E (human) (UniProt Q9UL03); experiment: co-IP
[5] = molecular target: INTS3c F806A/E839A mutant (human) (UniProt Q68E01); experiment: pull-down
[6] = molecular target: INTS3c V767A/D769A mutant (human) (UniProt Q68E01); experiment: pull-down

## INTS3(1-500) (from UniProt Q68E01 1-500) (domain or fragment)
INTS3(1-500) (human)
  binding: no binding

## INTS6c F858A/K859A mutant (from UniProt Q9UL03 800-887) (domain or fragment)
[1]
  binding: no binding

## Myc-tagged full length INTS6 (from UniProt Q9UL03 1-887)
[2]
  binding: binds

## full length INTS3 of the co-immunoprecipitation of Fig. 2E (from UniProt Q68E01 1-1043)
[3]
  binding: binds weakly
[4]
  binding: binds

B1: C-terminus of INTS6 (INTS6c; residues 800-887) (domain or fragment, human, UniProt Q9UL03 800-887, looked up)
chain: MHCRSHEEVNTELKAQIMKEIRKPGRKYERIFTLLKHVQGSLQTRLIFLQNVIKEASRFKKRMLIEQLENFLDEIHRRANQINHINSN
[5]
  binding: no binding
[6]
  binding: no binding
